A short description of the assay: qHTS Assay to Find Inhibitors of Chronic Active B-Cell Receptor Signaling. The conditions noted are these: ABC-DLBCL IkBa-CBG/CBR reporter, luminescence ratio (green luciferase fused to IkBa over red control in TMD8 lymphoma cells), 4 h. Summed up: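 Concentration-response series (up to 46 uM) were applied to TMD8 dual-reporter cells for 4 h at 37C with doxycycline. Green/red ratio, after filter-overlap correction, defined %Activity; red signal alone was normalised to basal cells and zero luminescence.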
In general terms: Quantitative high-throughput screening tests each substance at several concentrations.

[1] abbreviates: measured here: CBR red luminescence, cell number.
[2] abbreviates: measured here: IkBa-CBG green luminescence.

The values below come from PubChem BioAssay AID493014 (National Center for Advancing Translational Sciences (NCATS), 2011).

SMILES strings stand for the structures. “And” between values parts separate entries of the source, which are not always exact repeats. Identical values can stand only once. This is one part of the list. Shown are side measurements of this screen, not its main read-out; they come without a call. Compounds called inactive in the main read-out are mostly missing here. Words in brackets tell the shape of the fitted curve; partial curves, single points and poor fits give uncertain potencies.

For orientation: AC50 means the midpoint of the concentration-response curve, whichever way the signal moves. Regarding `COc1cc(N2C(=O)CSC2=S)cc(OC)c1OC`, the AC50 under setting [1] was 35.5 µM [falling, single point].

`Cc1nc2c(c(=O)n1Cc1ccccc1Cl)c1nc3ccccc3nc1n2Cc1ccco1`: under setting [1], the half-maximal activity concentration (AC50) was 4.11 µM [falling, partial curve, poor fit].

Consider `CC(C)c1ccc(NC(=O)c2cc(S(=O)(=O)NCC3COc4ccccc4O3)ccc2F)cc1` (stereo not given), for which, under setting [1], the AC50 is 18.4 µM [falling, single point].

On to `CC(=O)c1cccc(NC(=O)c2ccncc2)c1`, for which the AC50 under setting [1] is 35.5 µM [rising, single point].

On to `OC(CCN1CCCC1)(c1ccccc1)C1CCCCC1` (stereo not given), for which the AC50 under setting [1] was 8.91 µM [falling, partial curve, poor fit].

With `CCOc1ccccc1/C=C/c1onc(C)c1S(=O)(=O)N1CCC(C(=O)N(CC)CC)CC1`, the concentration at half-maximal activity (AC50) under setting [1] was 1 µM [rising, full curve, poor fit] and 15.8 µM [falling, single point].

Consider `Nc1nnc(-c2cn(-c3ccccc3)nc2-c2ccc(Cl)cc2)o1`, for which, under setting [1], the AC50 was 22.4 µM [rising, single point].

For `O=c1cc(-c2ccc(Cl)cc2)[nH]c2ccccc12`, the AC50 under setting [1] was 8.91 µM [falling, partial curve, poor fit].

With `O=C(O)c1ccc(Cn2cnc3sc4c(c3c2=O)CCCC4)cc1`, the AC50 under setting [1] is 8.91 µM [falling, partial curve, poor fit].

In the case of `COC(=O)c1ccc(-c2noc(CN(C)CCC3CCCCO3)n2)cc1` (stereo not given), under setting [1], the concentration at half-maximal activity (AC50) was 2.51 µM [falling, partial curve, poor fit].

Turning to `CC(C)[C@H](NC(=O)c1ccccc1)C(=O)NCCc1ccccc1`, the AC50 under setting [1] was 7.08 µM [rising, full curve, poor fit].

As to `COc1ccc(CN(C)S(=O)(=O)c2nnc(NC(=O)c3cccc(F)c3)s2)cc1OC`, the AC50 under setting [1] was 7.08 µM [rising, partial curve, poor fit].

Turning to `COc1ccc2c(c1OC)C(=O)OC2CC(=O)c1ccc(O)cc1` (stereo not given), the AC50 under setting [1] is 11.2 µM [falling, partial curve].

In the case of `COc1cc2c(cc1NC(=O)CSc1nnc(COc3ccc(Cl)cc3)n1C)oc1ccccc12`, the AC50 reads like this: under setting [1], 11.2 µM [falling, partial curve]; under setting [2], 15.8 µM [rising, partial curve, poor fit].

Take `CS(=O)(=O)N(Cc1ccccc1)c1ccccc1C(=O)Nc1ccccc1C(=O)NCc1ccco1`: the AC50 under setting [1] was 0.517 µM [falling, partial curve, poor fit].

In the case of `Cc1ccc(-c2nc3ccccc3nc2-c2ccccc2)cc1`, the AC50 under setting [1] is 0.708 µM [rising, full curve, poor fit].

Regarding `CCC(Sc1nc2n[nH]c(C)c2c(=N)n1-c1cccc(Cl)c1)C(=O)NCCOC` (stereo not given), the AC50 under setting [1] was 35.5 µM [falling, single point].

As for `CN1CCN(c2ccccc2NC(=O)c2cccc(OCc3ccccc3)c2)CC1`, the AC50 under setting [1] is 1.84 µM [falling, single point].

For `CCc1ccc(/C(C)=N/NC(=O)c2c[nH]c3ccccc23)s1`, the AC50 under setting [1] was 7.94 µM [falling, partial curve].

On to `COc1cccc(C2C(C(C)=O)=C(O)C(=O)N2CCNCCO)c1` (stereo not given), for which the AC50 under setting [1] is 35.5 µM [rising, single point].

As for `CC(C)(C)c1ccc(NC(=O)CSc2n[nH]c(=O)n2-c2cccnc2)cc1`, the AC50 under setting [1] was 12.6 µM [falling, partial curve, poor fit].

As to `Cc1cccc(NC(=O)CCN2C(=O)C3C4C=CC(C4)C3C2=O)c1` (stereo not given), the AC50 under setting [1] is 8.2 µM [rising, partial curve, poor fit].

With `Clc1cccc(-c2nc(NCCCN3CCOCC3)c3ccccc3n2)c1`, the concentration at half-maximal activity (AC50) by setting is: under setting [1], 20 µM [falling, partial curve, poor fit]; under setting [2], 35.5 µM [rising, partial curve, poor fit].

For the compound `COc1ccc(-c2cnnn2-c2ccc(NC(=O)c3c(F)cccc3F)cc2)cc1`, the half-maximal activity concentration (AC50) under setting [1] was 6.31 µM [falling, single point].

Take `C=C(C)C(=O)N1CC2(CC(c3cccc(NC(=O)COc4ccc(Cl)cc4)c3)=NO2)C[C@@H]1C(N)=O` (stereo not given in full): the AC50 under setting [1] is 12.6 µM [falling, partial curve, poor fit].

`Cc1cc(=O)n(CC=C(Cl)Cl)c2ccccc12`: the AC50 under setting [1] is 1.12 µM [rising, full curve, poor fit].

For the compound `O=C(CNC(=O)c1ccc2c(c1)OCO2)Nc1ncccc1O`, under setting [1], the AC50 was 18.4 µM [falling, partial curve].

For `CC(=O)c1ccc(Oc2cc(C)nc(-n3nc(C)cc3C)n2)cc1`, the AC50 is 16.4 µM [rising, single point] under setting [1] and 20.6 µM [falling, partial curve] under setting [2].

Regarding `Cc1nc2c(C(=O)NCc3ccccc3)c[nH]n2c(=O)c1Cl`, the AC50 under setting [1] was 35.5 µM [rising, single point].

Regarding `CCN(C[C@H]1N[C@@](C)(C(=O)OC)[C@H]2C(=O)N(Cc3ccccc3)C(=O)[C@@H]12)C(=O)COC`, the AC50 under setting [1] is 13 µM [rising, partial curve, poor fit].

Regarding `CSc1ccc(CNCCCSc2ncccn2)cc1`, the AC50 under setting [1] was 17.8 µM [falling, single point].

On to `CCN1CCN(C(=O)c2ccc3c(Cl)c4c(nc3c2)CCCC4)CC1`, for which the AC50 under setting [1] was 11.2 µM [falling, partial curve, poor fit].

Regarding `O=C(CN1CCC(C(=O)c2ccc(F)cc2)CC1)Nc1ccc(F)cc1`, the AC50 under setting [1] is 16.4 µM [falling, partial curve, poor fit].

For the compound `NS(=O)(=O)c1ccc(CNC(=O)CSc2ccccc2)cc1`, the AC50 under setting [1] was 35.5 µM [rising, single point].

For the compound `Cc1c(Cl)cccc1NC(=O)Nc1ccc(C(N)=O)cc1`, the AC50 under setting [1] is 2.51 µM [falling, partial curve, poor fit].

Consider `COc1ccccc1NC(=S)NCCc1ccccc1`, for which, under setting [1], the AC50 is 3.55 µM [rising, single point].

On to `O=S(=O)(c1ccc(S(=O)(=O)N2CCN(Cc3ccccc3)CC2)cc1)N1CCOCC1`, for which, under setting [1], the AC50 was 1 µM [rising, full curve, poor fit].

In the case of `Cc1ccc(Nc2nc(-c3c(C)nc4ncccn34)cs2)cc1`, the AC50 under setting [1] was 1.26 µM [rising, partial curve, poor fit] and the AC50 under setting [2] is 2.51 µM [falling, partial curve].

Turning to `COc1ccc(N(CC(=O)NCCc2ccc(OC)c(OC)c2)S(=O)(=O)c2ccc(OC)c(OC)c2)cc1`, the AC50 under setting [1] is 10 µM [rising, partial curve].

Take `COc1ccc(CC(=O)N2CCc3ccccc3C2)cc1`: the AC50 under setting [1] was 2.82 µM [rising, full curve, poor fit].

As to `COc1ccc(F)cc1S(=O)(=O)Nc1cc2c3c(c1)CCN3C(=O)CC2`, the AC50 under setting [1] is 25.9 µM [rising, partial curve, poor fit].

As for `O=C1CC(SCCc2nc3ccccc3[nH]2)C(=O)N1c1ccc(Cl)cc1` (stereo not given), under setting [1], the AC50 is 14.1 µM [falling, partial curve, poor fit].

In the case of `Cc1nc2ccccc2c2oc(C(=O)NCCN3CCN(C)CC3)cc12`, under setting [1], the AC50 was 0.282 µM [falling, full curve, poor fit].

Take `COc1ccc(OC)c(NC(=O)CSc2ccnc(=O)[nH]2)c1`: the AC50 under setting [1] was 3.98 µM [falling, full curve].

Turning to `Cc1ccc(C2CC(c3ccc(NS(C)(=O)=O)cc3)=NN2C(=O)c2ccco2)cc1` (stereo not given), the AC50 under setting [1] is 29.1 µM [falling, single point].

On to `COc1ccc(NC(=O)c2c(NCc3ccc(C)o3)sc3c2CCC(C)C3)c(OC)c1` (stereo not given), for which, under setting [1], the AC50 is 35.5 µM [falling, single point].

`COc1cccc(Oc2ccc(C(F)(F)F)cc2NC(=O)c2cccc(F)c2)c1`: the AC50 under setting [1] was 1.84 µM [rising, partial curve].

For `Brc1ccc(Nc2ncnc3[nH]ncc23)cc1`, under setting [1], the AC50 was 5.62 µM [rising, single point].

With `COCCCn1c(SCc2cccc(C(F)(F)F)c2)nc2cc(OC)c(OC)cc2c1=N`, the AC50 under setting [1] is 7.94 µM [falling, partial curve, poor fit].

Take `CCN(CC)CCN1C(=O)c2ccccc2NC1c1ccc(N(C)C)cc1` (stereo not given): the AC50 under setting [1] was 32.6 µM [falling, single point].

On to `CCC(=O)N(CCC1(c2ccccc2OC)CCOC(C(C)C)C1)Cc1ccco1` (stereo not given), for which the AC50 under setting [1] is 35.5 µM [falling, partial curve, poor fit].

For `CCOC(=O)c1c[nH]c2c(Cl)c(Cl)ccc2c1=O`, the AC50 under setting [1] is 0.411 µM [rising, partial curve, poor fit].

`CCn1cc(C(=O)Nc2ccccc2)c(=O)c2ccc(C)nc21`: under setting [1], the AC50 is 0.0891 µM [rising, full curve, poor fit].

Turning to `O=C(c1ccc2c(c1)OCO2)C1CCCN(Cc2cn[nH]c2-c2cccc(F)c2)C1` (stereo not given), under setting [1], the AC50 was 4.47 µM [falling, full curve].

As for `O=C(c1cc(-c2ccccc2)on1)N1CCN(c2ccccc2)CC1`, the AC50 under setting [1] is 0.501 µM [falling, full curve, poor fit].

Consider `COC(=O)C1=C(C)OC(N)=C(C#N)C1c1c(C)nn(-c2ccccc2)c1Cl` (stereo not given), for which the AC50 under setting [1] was 0.651 µM [falling, partial curve, poor fit].

Consider `c1ccc(Oc2ccc(-n3cnnn3)cc2)cc1`, for which, under setting [1], the AC50 is 18.4 µM [rising, single point].

Regarding `C[C@H](CO)N1C[C@H](C)[C@@H](CN(C)C(=O)Nc2ccccc2)Oc2c(NC(=O)Nc3ccc(C(F)(F)F)cc3)cccc2C1=O`, under setting [1], the AC50 is 20.6 µM [falling, single point].

Regarding `CC(=O)NC1=NN(C(C)=O)C(C)(c2ccco2)S1` (stereo not given), the AC50 under setting [1] is 35.5 µM [falling, single point].

In the case of `Cc1ccc(NC(=S)NC2CCSc3ccccc32)cc1` (stereo not given), the AC50 under setting [1] was 14.1 µM [falling, partial curve, poor fit].

For `Cc1cc(-c2ccc(S(=O)(=O)N(C)c3ccc(C)c(C)c3)s2)on1`, under setting [2], the AC50 is 12.6 µM [falling, partial curve, poor fit].
